Results taken from PubChem BioAssay AID493014 (National Center for Advancing Translational Sciences (NCATS), 2011).
The campaign covered roughly 340,000 compounds. About 170 (0.05%) were called active. Inconclusive means that the source gave no clear call. Such entries were picked first, then a sample of the others. Calls come from the whole dose curve; as a rule, active = well fitted inhibition curve with a large enough effect in the signal ratio, with a control signal flat (not every such curve was filed as active); inconclusive = small, poorly fitted or top-dose-only effect, or effect the other way, or a change in a side signal; inactive = flat fitted curve, though single readings scatter; the % refers to the signal ratio. Where the call is inconclusive, the potency comes from a doubtful curve fit.

Assay: qHTS Assay to Find Inhibitors of Chronic Active B-Cell Receptor Signaling;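 for activity change, negative = inhibition: plate controls were basal doxycycline-induced cells for no effect and cells given 10 µM MG132 for full effect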
Settings: ABC-DLBCL IkBa-CBG/CBR reporter, luminescence ratio (green luciferase fused to IkBa over red control in TMD8 lymphoma cells), 4 h; activity change, negative = inhibition: at 46.1 µM (top of the series) unless noted
Procedure, shortened: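 Doxycycline induced both beetle luciferases in TMD8 lymphoma cells; IKK-driven degradation limits the IkappaBalpha-fused green signal, while red luminescence normalises for cell number and nonspecific effects. Compounds tested up to 46 uM, 4 hrs.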
Potency is the fitted concentration of half-maximal effect.

Structure (SMILES)	activity change, negative = inhibition	Potency
O=C(O)c1cc(C(F)(F)F)nc2c(C(F)(F)F)cccc12	inactive: 13.8%	
CC(C)CN(C(=O)CCC(=O)OCC(=O)c1ccc(F)c(F)c1)c1c(N)n(CC(C)C)c(=O)[nH]c1=O	inactive: 0.58%	
O=C(COC(=O)CCNS(=O)(=O)c1ccccc1F)Nc1nnc(-c2ccccc2)o1	inconclusive: -2.67%	
Cc1ccccc1N1C(=O)CC(Sc2nnc(-c3ccccc3)o2)C1=O (configuration not stated)		inconclusive: 22.4 µM [falling, partial curve, poor fit]
O=C(Nc1cccc(S(=O)(=O)N2CCCCC2)c1)c1ccc([N+](=O)[O-])o1	inconclusive: -3.05%	
O=C1COc2ccccc2N1Cc1ccccc1Cl	inconclusive: 5.47%	
Cc1ccc(C2=NN3C(=O)c4ccccc4C3C2)cc1 (configuration not stated)	inconclusive: -5.67%	
O=C(Nc1ccc(Cl)cc1Cl)c1cccc(N2C(=O)C=CC2=O)c1		inconclusive: 7.94 µM [rising, partial curve, poor fit]
O=C(CN1CCOCC1)NCc1ccccc1Cl	inconclusive: -0.187%	
N#Cc1ccc(S(=O)(=O)N2CCCN(c3ccc(C(F)(F)F)cn3)CC2)cc1	inactive: 10.3%	
CCOC(=O)C1(Cc2cccc(Cl)c2)CCCN(C(=O)c2cc(C(C)C)nn2C)C1 (configuration not stated)	inconclusive: -5.41%	
CCOC(=O)c1ccc(NC(=S)N(Cc2cccnc2)Cc2ccco2)cc1	inactive: -0.553%	
CCc1ccc(C(=O)NNC(=O)OC)cc1	inconclusive: 9.72%	
CCc1nnc(NC(=O)c2ccc(-c3ccccc3Cl)o2)s1	inconclusive: 2.31%	
O=C(Cc1ccc(Cl)c(Cl)c1)Nc1cccc2ncccc12	inconclusive: -13.9%	
C/C(Cn1cnc([N+](=O)[O-])n1)=N\NC(=O)c1ccc(O)cc1O		inconclusive: 11.2 µM [falling, partial curve]
O=C(N/N=C/c1cc(Cl)cc([N+](=O)[O-])c1O)c1cccc(S(=O)(=O)N2CCOCC2)c1	inactive: 17.5%	
CC1Sc2ccc(S(=O)(=O)CCC(=O)NCc3ccc(Cl)cc3)cc2NC1=O (configuration not stated)	inconclusive: -4.19%	
CCCCNC(=O)c1sc2nc(C)cc(COC)c2c1-n1cccc1		inconclusive: 0.562 µM [falling, full curve, poor fit]
C/C(=N\OCc1ccc(C#N)cc1)c1cc2ccccc2o1	inconclusive: 2.56%	
CC(C)Oc1ccc(S(=O)(=O)N2CCOCC2)cc1NC(=O)CN1C(=O)NC2(CCCC2)C1=O	inconclusive: 2.69%	
Cc1nnsc1-c1onc(C)c1C(=O)Nc1cc(Cl)cc(Cl)c1	inconclusive: -21.2%	
COCc1c(C(=O)N/N=C(/C)c2cccs2)nnn1-c1nonc1N	inactive: 12.6%	
c1ccc(-c2nc(NC3CCCC3)c3ccccc3n2)cc1		inconclusive: 10 µM [rising, partial curve, poor fit]
COc1ccc(NC(=O)CSC2=Nc3ccccc3C3=NC(CCC(=O)NCCc4ccccc4)C(=O)N23)cc1 (configuration not stated)	inconclusive: 16.3%	
O=C(COc1ccccc1)Nn1cnc2ccccc21		inconclusive: 22.4 µM [falling, single point]

Structure (SMILES)	activity change, negative = inhibition	Potency
Cn1cccc1C(=S)N1CCOCC1	inconclusive: 10.2%	
COC(=O)c1ccc(CSc2nnc(C)s2)cc1	inconclusive: 9.35%	
CC(C)C[C@H]1CN=C(Nc2ccccc2)N1CCCCc1ccccc1	inconclusive: -15%	
N/C(=N\OC(=O)CC1CCCCC1)c1ccccn1		inconclusive: 31.6 µM [rising, single point]
CCN(CC)c1ccc(/C=N/N2CC(=O)NC2=S)cc1	inconclusive: 8.87%	
O=C(NC1CC1)C1CCC(=O)N1C1CCCC1 (configuration not stated)	inconclusive: 21.3%	
COc1ccc(S(=O)(=O)N2CCOC2CNC(=O)C(=O)NCC(C)C)cc1OC (configuration not stated)	inconclusive: 2.19%	
O=C(NCCc1cccs1)c1ccc(CS(=O)Cc2ccc(Cl)cc2)o1 (configuration not stated)	inconclusive: 0.191%	
CCc1ccc(-c2csc(NC(=O)C3CC(=O)N(c4ccc5c(c4)OCCO5)C3)n2)cc1 (configuration not stated)	inactive: 1.19%	
CCc1sc(C(=O)Nc2cc(Cl)ccc2N2CCCCC2)cc1C		inconclusive: 1.64 µM [falling, partial curve, poor fit]
COc1cccc(N/C(SC)=C(/C#N)C(N)=O)c1	inconclusive: -17.4%	
Cc1cc(F)ccc1S(=O)(=O)Nc1ccccc1C(=O)Nc1ccccc1-c1nc2ccccc2[nH]1		inconclusive: 13 µM [rising, partial curve, poor fit]
O=C(c1cc(-c2ccc(O)cc2)on1)N1CCCCCC1		inconclusive: 15.8 µM [falling, partial curve]
NNC(=O)c1ccc(O)cc1O		inconclusive: 18.4 µM [falling, single point]
CCCc1cc(=O)n2[nH]c(-c3ccc(Cl)cc3)cc2n1		inconclusive: 35.5 µM [rising, single point]
COc1ccc(C2c3[nH]c4ccccc4c3C[C@H]3C(=O)N(C4CCN(Cc5ccccc5)CC4)CC(=O)N23)cc1OC (some centres not stated)	inactive: -9.05%	
Cc1c(NC(=S)N/N=C/c2ccc([N+](=O)[O-])cc2O)c(=O)n(-c2ccccc2)n1C	inconclusive: 1.72%	
O=C(CCc1nnc2ccc(NCc3ccccc3Cl)nn12)NC1CCCC1	inconclusive: -10.6%	
Cn1c(=O)[nH]c(=O)c2c1nc(SCC(O)CCl)n2Cc1ccccc1 (configuration not stated)	inactive: -7.28%	
CC(=O)Oc1ccc(/C=C2/CCc3ccccc3C2=O)cc1		inconclusive: 25.1 µM [falling, partial curve]
O=C(O)C1(NS(=O)(=O)c2ccc(F)c(Cl)c2)CCCCC1	inconclusive: -3.65%	
CCOC(=O)c1c(C)oc2cc(Br)c(O)c(Br)c12	inconclusive: -1.2%	
O=C(c1ccc(C(F)(F)F)cc1)C1CCCN(C(=O)CN2C(=O)CSC2=O)C1 (configuration not stated)	inconclusive: -1.49%	
CCOc1ccc2nc(SC(C)C(N)=O)[nH]c2c1 (configuration not stated)	inconclusive: 4.14%	
CCCCCCc1c(O)nc(SCC(=O)O)[nH]c1=O	inconclusive: -39.5%	
CN1/C(=C\C=N\NC(=O)c2ccccc2Br)C(C)(C)c2ccccc21		inconclusive: 25.9 µM [falling, single point]

Laid out differently: results already given.
Structure (SMILES) | activity change, negative = inhibition | Potency
COc1cccc(N/C(SC)=C(/C#N)C(N)=O)c1 | inconclusive: -17.4% | 
Cc1cc(F)ccc1S(=O)(=O)Nc1ccccc1C(=O)Nc1ccccc1-c1nc2ccccc2[nH]1 |  | inconclusive: 13 µM [rising, partial curve, poor fit]
O=C(c1cc(-c2ccc(O)cc2)on1)N1CCCCCC1 |  | inconclusive: 15.8 µM [falling, partial curve]
NNC(=O)c1ccc(O)cc1O |  | inconclusive: 18.4 µM [falling, single point]
CCCc1cc(=O)n2[nH]c(-c3ccc(Cl)cc3)cc2n1 |  | inconclusive: 35.5 µM [rising, single point]
COc1ccc(C2c3[nH]c4ccccc4c3C[C@H]3C(=O)N(C4CCN(Cc5ccccc5)CC4)CC(=O)N23)cc1OC (some centres not stated) | inactive: -9.05% | 
Cc1c(NC(=S)N/N=C/c2ccc([N+](=O)[O-])cc2O)c(=O)n(-c2ccccc2)n1C | inconclusive: 1.72% | 
O=C(CCc1nnc2ccc(NCc3ccccc3Cl)nn12)NC1CCCC1 | inconclusive: -10.6% | 
Cn1c(=O)[nH]c(=O)c2c1nc(SCC(O)CCl)n2Cc1ccccc1 (configuration not stated) | inactive: -7.28% | 
CC(=O)Oc1ccc(/C=C2/CCc3ccccc3C2=O)cc1 |  | inconclusive: 25.1 µM [falling, partial curve]
